Results deposited as PubChem BioAssay AID1159584 (Peter MacCallum Cancer Centre, 2016).
Shown is an unselected part of about 18,000 reagents. Not all columns of the deposit are shown. Not given: the amount of reagent, the time to read-out.

Purpose: 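Genes that CDH1-null MCF10A cells selectively depend on to survive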 (primary screen)
System: human MCF10A breast epithelial cells, parental and CDH1-null
Reagent: siRNA against human genes
Measured: 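Cell viability by CellTiter-Glo ATP luminescence, each line scaled to the mean of mock wells across plates, then CDH1-null over parental ratio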
Scale: CDH1-null / parental viability ratio: higher = CDH1-null cells survive relatively better than parental; CDH1-null viability vs mock: higher = more viable CDH1-null cells

FRAS1
- CDH1-null / parental viability ratio: 1.17
- CDH1-null viability vs mock (fraction of mock): 0.76

EEF1G
- CDH1-null / parental viability ratio: 1.11
- CDH1-null viability vs mock (fraction of mock): 0.9

KCNK6
- CDH1-null / parental viability ratio: 1.34
- CDH1-null viability vs mock (fraction of mock): 0.82

GATAD2B
- CDH1-null / parental viability ratio: 1.27
- CDH1-null viability vs mock (fraction of mock): 0.81

CREB3L3
- CDH1-null / parental viability ratio: 0.89
- CDH1-null viability vs mock (fraction of mock): 0.78

BPNT2
- CDH1-null / parental viability ratio: 1.15
- CDH1-null viability vs mock (fraction of mock): 0.99

DEPDC4
- CDH1-null / parental viability ratio: 1.16
- CDH1-null viability vs mock (fraction of mock): 0.81

NPFFR1
- CDH1-null / parental viability ratio: 0.82
- CDH1-null viability vs mock (fraction of mock): 0.81

FRG2B
- CDH1-null / parental viability ratio: 1.17
- CDH1-null viability vs mock (fraction of mock): 0.97

TSPYL4
- CDH1-null / parental viability ratio: 0.99
- CDH1-null viability vs mock (fraction of mock): 0.81

CEP126
- CDH1-null / parental viability ratio: 1.29
- CDH1-null viability vs mock (fraction of mock): 1.28

ZCRB1
- CDH1-null / parental viability ratio: 0.59
- CDH1-null viability vs mock (fraction of mock): 0.54

TTLL13
- CDH1-null / parental viability ratio: 0.94
- CDH1-null viability vs mock (fraction of mock): 1.08

PIAS3
- CDH1-null / parental viability ratio: 1.02
- CDH1-null viability vs mock (fraction of mock): 1.04

EXOC3L2
- CDH1-null / parental viability ratio: 1.18
- CDH1-null viability vs mock (fraction of mock): 1.09

RIOX2
- CDH1-null / parental viability ratio: 1.1
- CDH1-null viability vs mock (fraction of mock): 0.56

RPP25L
- CDH1-null / parental viability ratio: 0.95
- CDH1-null viability vs mock (fraction of mock): 0.38

SMAD4
- CDH1-null / parental viability ratio: 1.1
- CDH1-null viability vs mock (fraction of mock): 0.8

SLC19A1
- CDH1-null / parental viability ratio: 1.48
- CDH1-null viability vs mock (fraction of mock): 1.08

TEAD2
- CDH1-null / parental viability ratio: 0.84
- CDH1-null viability vs mock (fraction of mock): 0.76

TNFSF14
- CDH1-null / parental viability ratio: 0.95
- CDH1-null viability vs mock (fraction of mock): 0.71

CYP3A5
- CDH1-null / parental viability ratio: 1.35
- CDH1-null viability vs mock (fraction of mock): 0.96

RFX2
- CDH1-null / parental viability ratio: 0.82
- CDH1-null viability vs mock (fraction of mock): 0.77

Continued, starting with the last 4 of the part before.
TEAD2
- CDH1-null / parental viability ratio: 0.84
- CDH1-null viability vs mock (fraction of mock): 0.76

TNFSF14
- CDH1-null / parental viability ratio: 0.95
- CDH1-null viability vs mock (fraction of mock): 0.71

CYP3A5
- CDH1-null / parental viability ratio: 1.35
- CDH1-null viability vs mock (fraction of mock): 0.96

RFX2
- CDH1-null / parental viability ratio: 0.82
- CDH1-null viability vs mock (fraction of mock): 0.77

SPP1
- CDH1-null / parental viability ratio: 0.87
- CDH1-null viability vs mock (fraction of mock): 0.7

KRTAP12-2
- CDH1-null / parental viability ratio: 1.04
- CDH1-null viability vs mock (fraction of mock): 1

TNS1
- CDH1-null / parental viability ratio: 1.27
- CDH1-null viability vs mock (fraction of mock): 0.8

RAB1B
- CDH1-null / parental viability ratio: 1.03
- CDH1-null viability vs mock (fraction of mock): 0.66

LRRC14
- CDH1-null / parental viability ratio: 1.07
- CDH1-null viability vs mock (fraction of mock): 0.75

HMGN2
- CDH1-null / parental viability ratio: 1.89
- CDH1-null viability vs mock (fraction of mock): 0.34

POM121L12
- CDH1-null / parental viability ratio: 1.23
- CDH1-null viability vs mock (fraction of mock): 0.74

SLC9C2
- CDH1-null / parental viability ratio: 0.93
- CDH1-null viability vs mock (fraction of mock): 0.87

ZNF154
- CDH1-null / parental viability ratio: 1.09
- CDH1-null viability vs mock (fraction of mock): 0.88

CIMAP1D
- CDH1-null / parental viability ratio: 1.08
- CDH1-null viability vs mock (fraction of mock): 1.05

HNRNPC
- CDH1-null / parental viability ratio: 1.38
- CDH1-null viability vs mock (fraction of mock): 0.22

LINC02870
- CDH1-null / parental viability ratio: 1.24
- CDH1-null viability vs mock (fraction of mock): 0.57
